Drawing on article PMC10625159, this text covers binding for 2 molecules.

By UniProt entry, the sequences of proteins in these tests, tags left out.
UniProt P62627: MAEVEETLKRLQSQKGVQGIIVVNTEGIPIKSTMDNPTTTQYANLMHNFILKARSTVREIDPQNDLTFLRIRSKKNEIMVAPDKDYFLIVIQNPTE
UniProt P97384: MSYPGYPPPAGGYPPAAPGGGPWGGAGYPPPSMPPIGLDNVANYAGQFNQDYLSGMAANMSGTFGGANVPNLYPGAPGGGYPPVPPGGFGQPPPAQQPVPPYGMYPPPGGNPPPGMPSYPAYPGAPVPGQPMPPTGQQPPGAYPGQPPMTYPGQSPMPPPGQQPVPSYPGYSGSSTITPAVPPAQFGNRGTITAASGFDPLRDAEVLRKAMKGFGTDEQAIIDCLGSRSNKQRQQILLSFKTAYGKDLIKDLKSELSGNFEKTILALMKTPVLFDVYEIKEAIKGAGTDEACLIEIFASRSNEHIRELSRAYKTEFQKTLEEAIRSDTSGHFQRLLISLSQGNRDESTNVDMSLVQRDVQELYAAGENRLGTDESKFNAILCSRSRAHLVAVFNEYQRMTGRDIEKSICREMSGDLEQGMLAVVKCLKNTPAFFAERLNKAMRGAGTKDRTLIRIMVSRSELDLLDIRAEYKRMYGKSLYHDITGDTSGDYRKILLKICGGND

Assay [1] has as its target MnT–Dynlrb1 (flag-tagged miniTurbo fused to the N-terminus of dynein light chain roadblock 1), expressed in DRG neurons (mouse) (UniProt P62627). The experiment in a line: proximity labelling; miniTurbo biotinylation in cultured DRG neurons (200 μM biotin, 2 h, 37 °C), streptavidin bead pulldown, LC–MS/MS; hits: abundance ratio ≥2 over MnT-control and p ≤0.05.
For assay [2] the target is unchanged. The description is as above. The source holds these as a separate data set.

Read-outs that look alike come from different tables or passages of the source. Results are given in words; binding and its absence hold for the method and conditions named. In cells and extracts the contact can be indirect. A yes stands for co-enrichment or nearness to the bait. Other partners may have been found.

In the case of “annexin A11 (Anxa11) (from UniProt P97384 1-503)”, the binding entry in assay [1] is recorded as “binds”.

B1: vacuolar protein sorting–associated protein VTA1 homolog (Vta1) (protein, UniProt Q9CR26 1-309)
chain: MAALAPLPPLPAQFKSIQHHLRTAQEHDKRDPVVAYYCRLYAMQTGMKIDSKTPECRKFLSKLMDQLEALKKQLGDNEAVTQEIVGCAHLENYALKMFLYADNEDRAGRFHKNMIKSFYTASLLIDVITVFGELTDENVKHRKYARWKATYIHNCLKNGETPQAGPVGIEEENDVEENEDVGATSLPTQPPQPSSSSAYDPSNLAPGSYSGIQIPPGAHAPANTPAEVPHSTGVTSNAVQPSPQTVPAAPAVDPDLYTASQGDIRLTPEDFARAQKYCKYAGSALQYEDVGTAVQNLQKALRLLTTGRE
Regarding B1, the binding result in assay [2] is reported as “binds”.
